The values below come from paper PMC7862700.

This is a selection; strong and weak results do not stand in their true shares. For part of these data: At the low end of the ranking the order means little. The list shows a part of the results. For part of these data: The exact form of the protein is not confirmed.

Common to all, as to test: DAPPL (digital affinity profiling via proximity ligation, sequencing)
What all share (conditions): 10 mM Tris-HCl pH 7.5, 50 mM NaCl, 1 mM DTT, 4% glycerol, room temperature, 30 min; GST-TFs on glutathione beads, 16-mer random dsDNA library, 0.1% …; high values mean tight binding; double strand, one strand shown; scale: fold enrichment (6-mer frequency, TF over GST control)

One assay deals with T1, GABPA (UniProt Q06546).
T1 sequence: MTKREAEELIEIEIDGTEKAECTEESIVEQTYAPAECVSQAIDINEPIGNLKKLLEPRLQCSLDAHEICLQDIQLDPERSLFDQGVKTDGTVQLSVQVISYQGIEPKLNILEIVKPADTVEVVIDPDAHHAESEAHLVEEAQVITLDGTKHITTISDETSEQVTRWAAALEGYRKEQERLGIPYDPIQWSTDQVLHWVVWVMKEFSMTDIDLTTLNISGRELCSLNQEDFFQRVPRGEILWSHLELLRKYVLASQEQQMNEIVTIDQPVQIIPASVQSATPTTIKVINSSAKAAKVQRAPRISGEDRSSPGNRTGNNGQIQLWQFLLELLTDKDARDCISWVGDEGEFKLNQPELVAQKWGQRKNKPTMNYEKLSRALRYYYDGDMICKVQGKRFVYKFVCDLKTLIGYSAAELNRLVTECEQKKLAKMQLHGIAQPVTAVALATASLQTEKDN

The target of another assay is T2, ETS1 (UniProt P14921).
T2 sequence: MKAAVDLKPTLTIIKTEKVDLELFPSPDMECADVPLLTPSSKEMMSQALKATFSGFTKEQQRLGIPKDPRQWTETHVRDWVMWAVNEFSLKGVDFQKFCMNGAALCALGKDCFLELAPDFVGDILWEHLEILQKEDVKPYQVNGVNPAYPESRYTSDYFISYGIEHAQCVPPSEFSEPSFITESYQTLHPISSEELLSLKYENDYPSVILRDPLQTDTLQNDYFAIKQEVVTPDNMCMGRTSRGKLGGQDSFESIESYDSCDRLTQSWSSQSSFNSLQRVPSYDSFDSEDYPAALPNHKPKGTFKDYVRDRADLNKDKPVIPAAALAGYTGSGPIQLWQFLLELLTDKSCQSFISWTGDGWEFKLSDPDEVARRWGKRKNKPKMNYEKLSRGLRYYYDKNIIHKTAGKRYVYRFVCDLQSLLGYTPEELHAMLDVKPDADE

The target in a further assay is T3, SPDEF (UniProt O95238).
T3 sequence: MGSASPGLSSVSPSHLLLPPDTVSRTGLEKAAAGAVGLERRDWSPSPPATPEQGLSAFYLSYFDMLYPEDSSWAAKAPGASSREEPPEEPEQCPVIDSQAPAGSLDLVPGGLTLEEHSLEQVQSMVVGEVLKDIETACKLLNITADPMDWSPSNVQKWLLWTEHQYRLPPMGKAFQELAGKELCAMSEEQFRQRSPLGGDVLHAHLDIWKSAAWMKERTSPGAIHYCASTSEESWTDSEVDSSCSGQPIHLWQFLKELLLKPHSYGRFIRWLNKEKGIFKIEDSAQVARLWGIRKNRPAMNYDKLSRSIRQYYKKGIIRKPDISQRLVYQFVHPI

As to GTGGTT, the figures for the binding signal with GABPA, in the assay with ETS1 and in the assay with SPDEF were 0.893, 0.862 and 0.836, respectively.
In the case of CCAGCA, the binding signal was 0.932 with GABPA, 0.887 in the assay with ETS1 and 0.86 in the assay with SPDEF.
In the same order, the values of AGCAGA are 0.964, 0.891 and 0.873.
For CATCCA, in that order: 0.978, 0.976 and 0.986.
For GCTCGA, in that order: 1.15, 1.26 and 0.978.
CCACAG: the values for the binding signal in the assay with GABPA, with ETS1 and in the assay with SPDEF were 0.945, 0.906 and 0.898, respectively.
GTTGCG: the binding signal is 0.87 in the assay with GABPA, 0.939 in the assay with ETS1 and 0.925 in the assay with SPDEF.
For CGCAAT, in that order: 0.907, 1 and 0.916.
Consider GATCGA, for which the binding signal in the assay with GABPA was determined as 0.838; in the assay with ETS1, 0.801; in the assay with SPDEF it was 0.783.
For TAGAAC, in that order: 1.03, 0.988 and 0.98.
Take AGCGGC: the binding signal turned out to be 0.91 in the assay with GABPA, 0.956 with ETS1 and 0.876 with SPDEF.
In the same order, the values of GGATAA are 0.746, 0.823 and 0.828.
In the same order, the values of CATAGA are 0.953, 0.952 and 0.98.
In the same order, the values of AGGCTA are 0.948, 0.901 and 0.94.
In the case of TCGCTG, the figures for the binding signal with GABPA, in the assay with ETS1 and with SPDEF were 1.01, 1.08 and 0.97, respectively.
With TCAGTT, the binding signal in the assay with GABPA stood at 0.957; in the assay with ETS1, 1.02; with SPDEF it was 1.04.
For GAGAAT, in that order: 0.772, 0.778 and 0.728.
In the same order, the values of GCCGTC are 0.959, 0.996 and 1.03.
For CTAGGA, in that order: 0.899, 0.87 and 0.968.
Consider GCGTTA, for which the binding signal turned out to be 0.981 with GABPA, 0.979 with ETS1 and 0.869 in the assay with SPDEF.
In the same order, the values of GGAATG are 0.85, 0.839 and 0.835.
For GGAAGA, the results for the binding signal in the assay with GABPA, in the assay with ETS1 and with SPDEF were 1.11, 1.03 and 0.974, respectively.
For GCGAAC, in that order: 0.927, 0.977 and 0.838.
For AGTTAT, in that order: 0.894, 0.889 and 0.854.
In the same order, the values of TGAAGG are 0.848, 0.848 and 0.959.
As for CGCTGT, the binding signal is 0.973 with GABPA, 0.931 in the assay with ETS1 and 0.961 in the assay with SPDEF.
For CAGATT, in that order: 0.898, 1.01 and 0.992.
Consider CAGAAC, for which the results for the binding signal with GABPA, with ETS1 and with SPDEF were 0.931, 0.908 and 0.927, respectively.
In the same order, the values of CGAACT are 1.24, 1.19 and 0.944.
In the same order, the values of CCCCAG are 0.981, 1 and 0.897.
As for GCGCCG, the binding signal in the assay with GABPA worked out at 1.03; with ETS1 it was 1.02; in the assay with SPDEF, 0.931.
For TGTCGC, in that order: 0.975, 0.985 and 0.915.
As for CCCCTA, the binding signal in the assay with GABPA turned out to be 0.965; with ETS1, 1.04; with SPDEF, 1.07.
In the same order, the values of GCCAGA are 0.678, 0.608 and 0.655.
In the same order, the values of ATTAGA are 0.804, 0.999 and 0.832.
With GCCCTG, the binding signal in the assay with GABPA came to 0.992; in the assay with ETS1 it was 1.07; with SPDEF, 0.85.
In the same order, the values of TGAAGC are 0.997, 1.03 and 0.994.
For CTTCCA, in that order: 1.34, 1.44 and 1.45.
With GGTTTG, the binding signal came out at 1.24 with GABPA, 1.32 with ETS1 and 1.06 in the assay with SPDEF.
In the same order, the values of GTGGCC are 1.06, 1.09 and 0.871.
With TGGGTG, the values for the binding signal with GABPA, with ETS1 and with SPDEF were 0.963, 1.19 and 1.01, respectively.
For TAGGGC, in that order: 1.01, 0.973 and 1.01.
For ACTCGG, in that order: 0.975, 0.95 and 0.968.
For GTGGCA, in that order: 0.931, 1.04 and 0.933.
Take CTAACC: the binding signal in the assay with GABPA amounted to 1.09; in the assay with ETS1 it was 1.13; with SPDEF, 1.09.
Turning to GTGATG, the figures for the binding signal in the assay with GABPA, with ETS1 and with SPDEF were 0.986, 0.983 and 0.855, respectively.
In the same order, the values of CCATGG are 0.983, 0.994 and 0.967.
TGAACG: the binding signal with GABPA was determined as 0.887; with ETS1, 0.904; with SPDEF, 0.946.
For GTGACT, in that order: 0.992, 0.898 and 0.977.
In the same order, the values of TTGGAT are 0.96, 1.04 and 1.13.
In the same order, the values of GATCAT are 0.972, 0.97 and 0.965.
AGCTAG: the results for the binding signal in the assay with GABPA, with ETS1 and in the assay with SPDEF were 0.975, 1.09 and 0.87, respectively.
In the same order, the values of TGATTG are 0.98, 1.05 and 0.981.
As to CCTGCC, the binding signal in the assay with GABPA worked out at 1.25; in the assay with ETS1 it was 1.32; with SPDEF it was 1.31.
Take GAATGG: the binding signal with GABPA amounted to 0.983; in the assay with ETS1, 1.07; with SPDEF, 0.943.
For AGACTT, in that order: 1.03, 1.07 and 0.928.
In the same order, the values of AGAATC are 0.916, 0.964 and 0.936.
For GGATCA, in that order: 0.798, 0.783 and 0.93.
As for TGAATA, the binding signal in the assay with GABPA amounted to 1.2; in the assay with ETS1, 1.1; with SPDEF, 1.09.
As for GTCACG, the binding signal with GABPA came out at 0.999; in the assay with ETS1 it was 1.08; with SPDEF, 1.02.
